Results deposited as PubChem BioAssay AID1259254 (NCATS, 2017)
Screen: 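Genome-wide screen for genes that prevent DNA re-replication in cancer cells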 (primary screen). System: human HCT116 colorectal cancer cells. Reagent: single siRNA against human genes. Timing: 3 days. Read-out: 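Nuclei stained with Hoechst and imaged; cell-cycle phase assigned by DNA content; G2 share scaled per plate, non-targeting siRNA 0%, GMNN siRNA 100%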. Direction: G2 robust z-score: higher = more G2 cells, more excess DNA replication. Call rule: 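Active siRNAs have a G2 robust z of 5 or more median absolute deviations over the median, which in these data means about 38% or higher of GMNN control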.
Shown is an unselected part of about 59,000 reagents. About 1,550 of them (2.6%) were called active. 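G2 share is only a proxy for re-replication; each gene was hit by three separate siRNAs, and active genes were retested.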 A number with no mark means an inactive call. The numbers tell different reagents against one gene apart. Not all columns of the deposit are shown. Reagent sequences are not shown. Not stated in the record: the amount of reagent.

JAM2 #1 | G2 robust z-score = 0.699
JAM2 #2 | G2 robust z-score = -0.0958
JAM2 #3 | G2 robust z-score = -0.0582
HSF2 #1 | G2 robust z-score = 7.98 (active)
HSF2 #2 | G2 robust z-score = 2.8
HSF2 #3 | G2 robust z-score = -0.982

Taken from above.
HSF2 #1, G2 robust z-score = 7.98 (active)
Result for JAM2 #2 under “G2 robust z-score”: -0.0958

Continued.
DCAF16 #1 | G2 robust z-score = 1.4
DCAF16 #2 | G2 robust z-score = -0.357
DCAF16 #3 | G2 robust z-score = -1.05
LRRC37A #1 | G2 robust z-score = 2.32
LRRC37A #2 | G2 robust z-score = 2.96
LRRC37A #3 | G2 robust z-score = -0.731
PDZK1IP1 #1 | G2 robust z-score = -0.545
PDZK1IP1 #2 | G2 robust z-score = 1.1
PDZK1IP1 #3 | G2 robust z-score = 1.12
EIF1B #1 | G2 robust z-score = 0.152
EIF1B #2 | G2 robust z-score = 1.2
EIF1B #3 | G2 robust z-score = -0.493
